The values that follow come from article PMC4256660.

By UniProt entry, the sequences of proteins in these tests, tags left out. Where a name states a change or a piece, a line headed by the entry shows the natural chain unless it says otherwise.
UniProt P40763: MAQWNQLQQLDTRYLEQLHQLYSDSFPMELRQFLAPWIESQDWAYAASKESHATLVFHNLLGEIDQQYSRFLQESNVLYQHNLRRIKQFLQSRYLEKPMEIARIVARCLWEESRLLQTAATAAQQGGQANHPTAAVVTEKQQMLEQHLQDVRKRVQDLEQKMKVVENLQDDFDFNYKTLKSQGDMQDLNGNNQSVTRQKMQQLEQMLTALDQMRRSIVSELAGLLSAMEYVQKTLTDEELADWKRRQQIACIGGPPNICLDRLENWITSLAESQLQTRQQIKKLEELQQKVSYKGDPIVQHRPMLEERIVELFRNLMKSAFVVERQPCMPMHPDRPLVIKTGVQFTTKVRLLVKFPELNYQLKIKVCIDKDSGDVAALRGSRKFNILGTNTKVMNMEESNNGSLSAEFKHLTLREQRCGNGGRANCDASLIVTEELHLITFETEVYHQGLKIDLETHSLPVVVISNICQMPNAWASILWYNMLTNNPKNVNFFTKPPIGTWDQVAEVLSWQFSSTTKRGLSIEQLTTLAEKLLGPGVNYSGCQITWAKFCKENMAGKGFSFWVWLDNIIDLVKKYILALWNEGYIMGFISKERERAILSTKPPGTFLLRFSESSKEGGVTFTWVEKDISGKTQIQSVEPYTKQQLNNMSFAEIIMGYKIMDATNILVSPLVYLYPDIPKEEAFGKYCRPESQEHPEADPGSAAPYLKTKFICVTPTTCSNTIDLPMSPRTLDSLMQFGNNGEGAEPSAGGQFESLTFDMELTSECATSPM

For assay [1], the target named is T1, INPP5F-V5, co-transfected in 293T cells (UniProt Q9Y2H2).
T1 sequence: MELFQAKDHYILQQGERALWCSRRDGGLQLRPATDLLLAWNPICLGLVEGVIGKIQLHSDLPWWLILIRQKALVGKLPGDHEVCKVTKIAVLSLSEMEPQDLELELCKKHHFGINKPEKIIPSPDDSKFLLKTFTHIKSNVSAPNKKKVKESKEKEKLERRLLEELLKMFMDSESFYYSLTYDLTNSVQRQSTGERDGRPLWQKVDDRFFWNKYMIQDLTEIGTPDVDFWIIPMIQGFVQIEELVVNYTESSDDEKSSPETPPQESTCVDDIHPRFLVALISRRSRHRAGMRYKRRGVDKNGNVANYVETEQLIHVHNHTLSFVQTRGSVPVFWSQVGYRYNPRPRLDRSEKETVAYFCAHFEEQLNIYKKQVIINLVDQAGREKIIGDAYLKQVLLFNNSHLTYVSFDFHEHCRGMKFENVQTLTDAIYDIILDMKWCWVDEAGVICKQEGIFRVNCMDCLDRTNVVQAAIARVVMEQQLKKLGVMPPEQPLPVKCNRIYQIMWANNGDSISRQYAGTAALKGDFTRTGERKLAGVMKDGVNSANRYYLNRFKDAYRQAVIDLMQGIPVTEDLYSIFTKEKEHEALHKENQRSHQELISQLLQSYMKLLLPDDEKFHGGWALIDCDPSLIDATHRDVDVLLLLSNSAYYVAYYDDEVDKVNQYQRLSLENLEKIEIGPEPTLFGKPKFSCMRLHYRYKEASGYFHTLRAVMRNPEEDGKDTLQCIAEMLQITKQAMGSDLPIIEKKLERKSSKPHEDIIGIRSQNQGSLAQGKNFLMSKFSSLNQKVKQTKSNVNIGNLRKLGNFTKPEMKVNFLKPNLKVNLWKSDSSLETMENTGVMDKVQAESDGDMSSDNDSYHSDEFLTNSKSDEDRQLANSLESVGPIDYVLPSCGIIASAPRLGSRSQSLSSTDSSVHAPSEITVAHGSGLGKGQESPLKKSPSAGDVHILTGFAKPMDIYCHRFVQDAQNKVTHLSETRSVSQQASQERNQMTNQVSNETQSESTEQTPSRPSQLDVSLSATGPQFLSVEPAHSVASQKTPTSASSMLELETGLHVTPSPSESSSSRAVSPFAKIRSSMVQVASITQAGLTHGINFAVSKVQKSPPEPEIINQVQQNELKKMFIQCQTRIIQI
Put plainly: co-IP; 293T cells co-transfected with INPP5F-V5 and GFP-tagged STAT3 constructs; IP with anti-V5, immunoblot with anti-GFP; M2 lysis buffer, Dynabeads Protein G. A general note: A western blot detects proteins with antibodies after separation by electrophoresis.

The target in assay [2] is T2, Inositol Polyphosphate-5-Phosphatase F (INPP5F), V5-tagged, overexpressed in glioblastoma cells (UniProt Q9Y2H2).
T2 sequence: T1 sequence
Put plainly: co-IP; IP with anti-V5 (INPP5F-V5) from lysates of INPP5F overexpressing glioblastoma cells, immunoblot for STAT3; M2 lysis buffer (20 mM Tris pH 7, 0.5% NP40, 250 mM NaCl), Dynabeads Protein G.

Assay [3] addresses Signal Transducer and Activator of Transcription 3 (STAT3), endogenous in glioblastoma cells (human (endogenous in glioblastoma cells)) (UniProt P40763). Put plainly: co-IP; IP with anti-STAT3 from the same lysates of INPP5F overexpressing glioblastoma cells, immunoblot for INPP5F; M2 lysis buffer, Dynabeads Protein G.

No constants are given. Whether binding was seen depends on the method and setting. In cells and extracts the contact can be indirect. Some entries that bind do so weakly or less than the wild type. Where a sequence is shown, tags or fusion partners need not be part of it.

On to “STAT3-Y705F-GFP (from UniProt P40763 1-770)”, for which the binding entry in assay [1] is given as “binds”.

On to “Signal Transducer and Activator of Transcription 3 (STAT3), endogenous in glioblastoma cells (from UniProt P40763 1-770)”, for which the binding result in assay [2] is listed as “binds”.

B1: Inositol Polyphosphate-5-Phosphatase F (INPP5F), V5-tagged, overexpressed in glioblastoma cells (enzyme, UniProt Q9Y2H2 1-1132)
chain: T1 sequence
For the molecule B1, the binding result in assay [3] is listed as “binds”.
